Assay results from patent US20250049660A1, “ENOL ETHER PROPERFUME” (FIRMENICH SA, priority 2021, published 2025).

How the values were obtained:
[1] = Dynamic headspace analysis of line-dried cotton treated with liquid fabric softener; settings: ± standard deviation; for Dynamic headspace concentration of the perfumery raw material itself, reference: reference fabric softener with 0.075 mmol of each free volatile; for Dynamic headspace concentration of 2-methylundecanal, profragrance / Dynamic headspace concentration of 2-phenylethanol, profragrance / Dynamic headspace concentration of 2-phenylethyl formate, profragrance / Dynamic headspace concentration of 3-octanol, profragrance / Dynamic headspace concentration of 3-octanyl formate, profragrance / Dynamic headspace concentration of 10-undecanal, profragrance / Dynamic headspace concentration of 3-(4-methylcyclohex-3-en-1-yl)butanal, profragrance / Dynamic headspace concentration of 3-(4-(tert-butyl)phenyl)-2-methylpropanal, profragrance: fabric softener
[2] = Dynamic headspace analysis of line-dried cotton treated with liquid laundry detergent; settings: ± standard deviation; for Dynamic headspace concentration of the perfumery raw material itself, reference: reference liquid laundry detergent with 0.075 mmol of each free volatile; for Dynamic headspace concentration of 2-methylundecanal, profragrance / Dynamic headspace concentration of 2-phenylethanol, profragrance / Dynamic headspace concentration of 2-phenylethyl formate, profragrance / Dynamic headspace concentration of 3-octanol, profragrance / Dynamic headspace concentration of 3-octyl formate, profragrance / Dynamic headspace concentration of 10-undecenal, profragrance / Dynamic headspace concentration of 3-(4-methylcyclohex-3-en-1-yl)butanal, profragrance / Dynamic headspace concentration of 3-(4-(tert-butyl)phenyl)-2-methylpropanal, profragrance: liquid laundry detergent

CC1=CCC(C(C)CC=O)CC1 (centres unmarked) [3-(4-methylcyclohex-3-en-1-yl)butanal, reference compound]
Dynamic headspace concentration of the perfumery raw material itself, reference ([1]; 60 min sample (60-75 min)): 2.6 ± 0.5 ng/L | Dynamic headspace concentration of the perfumery raw material itself, reference ([1]; 120 min sample (120-135 min)): 5.3 ± 0.2 ng/L | Dynamic headspace concentration of the perfumery raw material itself, reference ([2]; 60 min sample (60-75 min)): 1.5 ± 0.3 ng/L | Dynamic headspace concentration of the perfumery raw material itself, reference ([2]; 120 min sample (120-135 min)): 1.9 ± 0.6 ng/L

C=CCCCCCCCCC=O [Compound 10-undecenal, 10-undecenal, reference compound]
Dynamic headspace concentration of the perfumery raw material itself, reference ([1]; 60 min sample (60-75 min)): 14.1 ± 2.5 ng/L | Dynamic headspace concentration of the perfumery raw material itself, reference ([1]; 120 min sample (120-135 min)): 17.9 ± 6.0 ng/L | Dynamic headspace concentration of the perfumery raw material itself, reference ([2]; 60 min sample (60-75 min)): 9.4 ± 1.3 ng/L | Dynamic headspace concentration of the perfumery raw material itself, reference ([2]; 120 min sample (120-135 min)): 10.2 ± 0.3 ng/L

CCCCCCCCCC(C)C=COCCc1ccccc1 (centres unmarked) [Compound 25, (2-((3-methyldodec-1-en-1-yl)oxy)ethyl)benzene]
Dynamic headspace concentration of 2-methylundecanal, profragrance ([1]; 60 min sample (60-75 min)): 222 ± 43.4 ng/L | Dynamic headspace concentration of 2-phenylethanol, profragrance ([1]; 60 min sample (60-75 min)): 9.2 ± 3.94 ng/L | Dynamic headspace concentration of 2-phenylethyl formate, profragrance ([1]; 60 min sample (60-75 min)): 114 ± 15.1 ng/L | Dynamic headspace concentration of 2-methylundecanal, profragrance ([1]; 120 min sample (120-135 min)): 216 ± 46.7 ng/L | Dynamic headspace concentration of 2-phenylethanol, profragrance ([1]; 120 min sample (120-135 min)): 11.1 ± 2.1 ng/L | Dynamic headspace concentration of 2-phenylethyl formate, profragrance ([1]; 120 min sample (120-135 min)): 92.2 ± 69.2 ng/L | Dynamic headspace concentration of 2-methylundecanal, profragrance ([2]; 60 min sample (60-75 min)): 178 ± 11.7 ng/L | Dynamic headspace concentration of 2-phenylethanol, profragrance ([2]; 60 min sample (60-75 min)): 12.1 ± 1.97 ng/L | Dynamic headspace concentration of 2-phenylethyl formate, profragrance ([2]; 60 min sample (60-75 min)): 106 ± 18.2 ng/L | Dynamic headspace concentration of 2-methylundecanal, profragrance ([2]; 120 min sample (120-135 min)): 178 ± 24.4 ng/L | Dynamic headspace concentration of 2-phenylethanol, profragrance ([2]; 120 min sample (120-135 min)): 11.5 ± 2.3 ng/L | Dynamic headspace concentration of 2-phenylethyl formate, profragrance ([2]; 120 min sample (120-135 min)): 75.4 ± 11.5 ng/L

CCCCCCCCCC(C)C=COC(CC)CCCCC (centres unmarked) [Compound 29, 3-methyl-1-(octan-3-yloxy)dodec-1-ene]
Dynamic headspace concentration of 2-methylundecanal, profragrance ([1]; 60 min sample (60-75 min)): 465 ± 54.4 ng/L | Dynamic headspace concentration of 3-octanol, profragrance ([1]; 60 min sample (60-75 min)): 99 ± 38.4 ng/L | Dynamic headspace concentration of 3-octanyl formate, profragrance ([1]; 60 min sample (60-75 min)): 118 ± 31.6 ng/L | Dynamic headspace concentration of 2-methylundecanal, profragrance ([1]; 120 min sample (120-135 min)): 446 ± 54.4 ng/L | Dynamic headspace concentration of 3-octanol, profragrance ([1]; 120 min sample (120-135 min)): 91.5 ± 28.3 ng/L | Dynamic headspace concentration of 3-octanyl formate, profragrance ([1]; 120 min sample (120-135 min)): 104 ± 32 ng/L | Dynamic headspace concentration of 2-methylundecanal, profragrance ([2]; 60 min sample (60-75 min)): 119 ± 47.3 ng/L | Dynamic headspace concentration of 3-octanol, profragrance ([2]; 60 min sample (60-75 min)): 10.9 ± 1.3 ng/L | Dynamic headspace concentration of 3-octyl formate, profragrance ([2]; 60 min sample (60-75 min)): 16.2 ± 1.6 ng/L | Dynamic headspace concentration of 2-methylundecanal, profragrance ([2]; 120 min sample (120-135 min)): 150 ± 2.4 ng/L | Dynamic headspace concentration of 3-octanol, profragrance ([2]; 120 min sample (120-135 min)): 8.2 ± 2.5 ng/L | Dynamic headspace concentration of 3-octyl formate, profragrance ([2]; 120 min sample (120-135 min)): 12.2 ± 3.6 ng/L

C=CCCCCCCCCC=COCCc1ccccc1 [Compound 30, (2-(dodeca-1,11-dien-1-yloxy)ethyl)benzene]
Dynamic headspace concentration of 2-phenylethanol, profragrance ([1]; 60 min sample (60-75 min)): 15.9 ± 2.6 ng/L | Dynamic headspace concentration of 2-phenylethyl formate, profragrance ([1]; 60 min sample (60-75 min)): 112 ± 23.9 ng/L | Dynamic headspace concentration of 10-undecanal, profragrance ([1]; 60 min sample (60-75 min)): 222 ± 29.5 ng/L | Dynamic headspace concentration of 2-phenylethanol, profragrance ([1]; 120 min sample (120-135 min)): 16.2 ± 3.4 ng/L | Dynamic headspace concentration of 2-phenylethyl formate, profragrance ([1]; 120 min sample (120-135 min)): 97.7 ± 8.9 ng/L | Dynamic headspace concentration of 10-undecanal, profragrance ([1]; 120 min sample (120-135 min)): 213 ± 29.5 ng/L | Dynamic headspace concentration of 2-phenylethanol, profragrance ([2]; 60 min sample (60-75 min)): 9.9 ± 3.0 ng/L | Dynamic headspace concentration of 2-phenylethyl formate, profragrance ([2]; 60 min sample (60-75 min)): 75.2 ± 42.5 ng/L | Dynamic headspace concentration of 10-undecenal, profragrance ([2]; 60 min sample (60-75 min)): 132 ± 60.9 ng/L | Dynamic headspace concentration of 2-phenylethanol, profragrance ([2]; 120 min sample (120-135 min)): 9.2 ± 0.8 ng/L | Dynamic headspace concentration of 2-phenylethyl formate, profragrance ([2]; 120 min sample (120-135 min)): 55.0 ± 7.1 ng/L | Dynamic headspace concentration of 10-undecenal, profragrance ([2]; 120 min sample (120-135 min)): 115 ± 16.0 ng/L

CC1=CC[C@H](C(C)CC=COCCc2ccccc2)CC1 (stereo partly drawn) [Compound 34, (2-((4-((R)-4-methylcyclohex-3-en-1-yl)pent-1-en-1-yl)oxy)ethyl)benzene]
Dynamic headspace concentration of 2-phenylethanol, profragrance ([1]; 60 min sample (60-75 min)): 19.7 ± 1.8 ng/L | Dynamic headspace concentration of 2-phenylethyl formate, profragrance ([1]; 60 min sample (60-75 min)): 111 ± 13.0 ng/L | Dynamic headspace concentration of 3-(4-methylcyclohex-3-en-1-yl)butanal, profragrance ([1]; 60 min sample (60-75 min)): 58.1 ± 5.3 ng/L | Dynamic headspace concentration of 2-phenylethanol, profragrance ([1]; 120 min sample (120-135 min)): 23.7 ± 2.9 ng/L | Dynamic headspace concentration of 2-phenylethyl formate, profragrance ([1]; 120 min sample (120-135 min)): 99.6 ± 21.1 ng/L | Dynamic headspace concentration of 3-(4-methylcyclohex-3-en-1-yl)butanal, profragrance ([1]; 120 min sample (120-135 min)): 78.4 ± 5.3 ng/L | Dynamic headspace concentration of 2-phenylethanol, profragrance ([2]; 60 min sample (60-75 min)): 6.3 ± 2.3 ng/L | Dynamic headspace concentration of 2-phenylethyl formate, profragrance ([2]; 60 min sample (60-75 min)): 31.7 ± 7.6 ng/L | Dynamic headspace concentration of 3-(4-methylcyclohex-3-en-1-yl)butanal, profragrance ([2]; 60 min sample (60-75 min)): 17.3 ± 2.1 ng/L | Dynamic headspace concentration of 2-phenylethanol, profragrance ([2]; 120 min sample (120-135 min)): 6.4 ± 4.6 ng/L | Dynamic headspace concentration of 2-phenylethyl formate, profragrance ([2]; 120 min sample (120-135 min)): 24.3 ± 12.5 ng/L | Dynamic headspace concentration of 3-(4-methylcyclohex-3-en-1-yl)butanal, profragrance ([2]; 120 min sample (120-135 min)): 17.6 ± 10.6 ng/L

CC(C=COCCc1ccccc1)Cc1ccc(C(C)(C)C)cc1 (centres unmarked) [Compound 35, 1-(tert-butyl)-4-(2-methyl-4-phenethoxybut-3-en-1-yl)benzene]
Dynamic headspace concentration of 2-phenylethanol, profragrance ([1]; 60 min sample (60-75 min)): 12.4 ± 1.1 ng/L | Dynamic headspace concentration of 2-phenylethyl formate, profragrance ([1]; 60 min sample (60-75 min)): 129 ± 6.4 ng/L | Dynamic headspace concentration of 3-(4-(tert-butyl)phenyl)-2-methylpropanal, profragrance ([1]; 60 min sample (60-75 min)): 103 ± 32.7 ng/L | Dynamic headspace concentration of 2-phenylethanol, profragrance ([1]; 120 min sample (120-135 min)): 16.2 ± 1.3 ng/L | Dynamic headspace concentration of 2-phenylethyl formate, profragrance ([1]; 120 min sample (120-135 min)): 145 ± 25.9 ng/L | Dynamic headspace concentration of 3-(4-(tert-butyl)phenyl)-2-methylpropanal, profragrance ([1]; 120 min sample (120-135 min)): 128 ± 14.1 ng/L | Dynamic headspace concentration of 2-phenylethanol, profragrance ([2]; 60 min sample (60-75 min)): 4.4 ± 0.27 ng/L | Dynamic headspace concentration of 2-phenylethyl formate, profragrance ([2]; 60 min sample (60-75 min)): 36.9 ± 7.4 ng/L | Dynamic headspace concentration of 3-(4-(tert-butyl)phenyl)-2-methylpropanal, profragrance ([2]; 60 min sample (60-75 min)): 34.3 ± 8.8 ng/L | Dynamic headspace concentration of 2-phenylethanol, profragrance ([2]; 120 min sample (120-135 min)): 3.3 ± 0.3 ng/L | Dynamic headspace concentration of 2-phenylethyl formate, profragrance ([2]; 120 min sample (120-135 min)): 23.2 ± 2.1 ng/L | Dynamic headspace concentration of 3-(4-(tert-butyl)phenyl)-2-methylpropanal, profragrance ([2]; 120 min sample (120-135 min)): 32.3 ± 8.1 ng/L
